The list shows a part of the results.
Columns and labels:
Test in all cases: log2 fold change, soluble protein after heating vs DMSO (PISA); higher = thermal stabilisation; K562 cells, 10 uM, 30 min; active = over 0.2 and 3.5 SD of the protein, either way, in both replicates (recomputed)
[1] = compound: CS(=O)(=O)c1ccc(-c2cnc(N)c(C(=O)Nc3ccccc3)n2)cc1
In short: (§1)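 Soluble protein was quantified by TMTpro 16plex LC-MS/MS after channel sums were equalised. It was obtained as the supernatant after 21,000xg for 90 min from pooled aliquots of K562 cells (2×10^6 cells/mL, 10 μM compound, 30 min) heated for 3 min across 48°C-58°C and extracted in PBS with 0.5% NP-40 at 4°C. Thermal stability values are relative to control samples and come from duplicates. They are given as log2 fold changes.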

Sequences of proteins named here, by UniProt entry; tags and fusion partners are left off. A change or cut given only in a name is not applied to a line headed by its entry.
UniProt Q9NUJ1: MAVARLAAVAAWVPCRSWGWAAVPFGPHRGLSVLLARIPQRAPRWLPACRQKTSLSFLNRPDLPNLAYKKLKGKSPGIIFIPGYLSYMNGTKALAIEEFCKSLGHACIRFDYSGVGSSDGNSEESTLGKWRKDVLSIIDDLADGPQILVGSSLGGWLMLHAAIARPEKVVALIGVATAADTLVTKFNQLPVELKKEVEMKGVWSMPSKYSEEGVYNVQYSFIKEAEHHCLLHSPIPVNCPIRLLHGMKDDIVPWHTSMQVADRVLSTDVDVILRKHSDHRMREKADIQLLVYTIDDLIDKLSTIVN
UniProt Q5T8D3: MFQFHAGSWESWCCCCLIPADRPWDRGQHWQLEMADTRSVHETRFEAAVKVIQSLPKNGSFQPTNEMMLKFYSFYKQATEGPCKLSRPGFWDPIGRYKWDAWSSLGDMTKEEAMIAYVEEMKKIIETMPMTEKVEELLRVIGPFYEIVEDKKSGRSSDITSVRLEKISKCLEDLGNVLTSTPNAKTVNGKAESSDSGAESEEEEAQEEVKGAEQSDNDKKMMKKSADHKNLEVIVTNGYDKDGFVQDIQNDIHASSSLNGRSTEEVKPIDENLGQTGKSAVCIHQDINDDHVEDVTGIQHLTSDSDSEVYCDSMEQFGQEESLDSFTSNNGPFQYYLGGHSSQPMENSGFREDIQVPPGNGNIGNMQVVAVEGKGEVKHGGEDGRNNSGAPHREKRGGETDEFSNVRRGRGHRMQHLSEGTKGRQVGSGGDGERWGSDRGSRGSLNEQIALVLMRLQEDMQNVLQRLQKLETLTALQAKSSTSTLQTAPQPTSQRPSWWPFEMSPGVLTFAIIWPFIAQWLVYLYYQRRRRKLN
UniProt P24666: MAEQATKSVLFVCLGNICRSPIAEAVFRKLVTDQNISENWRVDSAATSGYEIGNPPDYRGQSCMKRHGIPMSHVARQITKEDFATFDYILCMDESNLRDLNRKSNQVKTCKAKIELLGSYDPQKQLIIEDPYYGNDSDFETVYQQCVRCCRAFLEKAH
UniProt Q9NRG9: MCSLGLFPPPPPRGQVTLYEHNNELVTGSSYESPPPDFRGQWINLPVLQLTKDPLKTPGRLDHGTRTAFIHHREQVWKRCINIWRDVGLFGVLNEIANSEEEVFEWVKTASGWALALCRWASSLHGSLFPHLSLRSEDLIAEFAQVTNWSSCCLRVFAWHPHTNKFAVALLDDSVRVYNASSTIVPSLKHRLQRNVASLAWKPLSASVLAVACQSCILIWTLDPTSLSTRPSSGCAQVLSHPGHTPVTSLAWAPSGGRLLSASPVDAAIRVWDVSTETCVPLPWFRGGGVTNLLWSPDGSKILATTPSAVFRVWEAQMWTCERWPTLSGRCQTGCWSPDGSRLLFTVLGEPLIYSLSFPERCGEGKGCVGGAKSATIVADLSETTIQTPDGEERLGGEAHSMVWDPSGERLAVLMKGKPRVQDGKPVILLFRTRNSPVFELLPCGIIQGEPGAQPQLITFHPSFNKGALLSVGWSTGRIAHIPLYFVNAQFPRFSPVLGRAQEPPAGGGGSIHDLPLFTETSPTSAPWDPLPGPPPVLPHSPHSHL
UniProt Q86TW2: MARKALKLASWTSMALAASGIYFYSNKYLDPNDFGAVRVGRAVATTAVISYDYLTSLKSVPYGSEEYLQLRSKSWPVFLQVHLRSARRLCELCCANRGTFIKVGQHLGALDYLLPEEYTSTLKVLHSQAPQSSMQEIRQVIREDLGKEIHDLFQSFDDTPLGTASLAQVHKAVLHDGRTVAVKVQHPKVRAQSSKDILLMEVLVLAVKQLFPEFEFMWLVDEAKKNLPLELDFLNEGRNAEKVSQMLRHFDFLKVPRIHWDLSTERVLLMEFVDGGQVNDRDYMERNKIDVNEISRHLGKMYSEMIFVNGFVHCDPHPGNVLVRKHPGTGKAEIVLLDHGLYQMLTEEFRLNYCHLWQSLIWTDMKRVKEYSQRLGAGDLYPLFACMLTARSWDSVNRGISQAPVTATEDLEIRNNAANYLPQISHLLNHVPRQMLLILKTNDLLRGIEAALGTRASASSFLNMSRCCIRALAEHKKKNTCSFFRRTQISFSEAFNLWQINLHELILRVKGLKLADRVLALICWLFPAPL
UniProt Q13443: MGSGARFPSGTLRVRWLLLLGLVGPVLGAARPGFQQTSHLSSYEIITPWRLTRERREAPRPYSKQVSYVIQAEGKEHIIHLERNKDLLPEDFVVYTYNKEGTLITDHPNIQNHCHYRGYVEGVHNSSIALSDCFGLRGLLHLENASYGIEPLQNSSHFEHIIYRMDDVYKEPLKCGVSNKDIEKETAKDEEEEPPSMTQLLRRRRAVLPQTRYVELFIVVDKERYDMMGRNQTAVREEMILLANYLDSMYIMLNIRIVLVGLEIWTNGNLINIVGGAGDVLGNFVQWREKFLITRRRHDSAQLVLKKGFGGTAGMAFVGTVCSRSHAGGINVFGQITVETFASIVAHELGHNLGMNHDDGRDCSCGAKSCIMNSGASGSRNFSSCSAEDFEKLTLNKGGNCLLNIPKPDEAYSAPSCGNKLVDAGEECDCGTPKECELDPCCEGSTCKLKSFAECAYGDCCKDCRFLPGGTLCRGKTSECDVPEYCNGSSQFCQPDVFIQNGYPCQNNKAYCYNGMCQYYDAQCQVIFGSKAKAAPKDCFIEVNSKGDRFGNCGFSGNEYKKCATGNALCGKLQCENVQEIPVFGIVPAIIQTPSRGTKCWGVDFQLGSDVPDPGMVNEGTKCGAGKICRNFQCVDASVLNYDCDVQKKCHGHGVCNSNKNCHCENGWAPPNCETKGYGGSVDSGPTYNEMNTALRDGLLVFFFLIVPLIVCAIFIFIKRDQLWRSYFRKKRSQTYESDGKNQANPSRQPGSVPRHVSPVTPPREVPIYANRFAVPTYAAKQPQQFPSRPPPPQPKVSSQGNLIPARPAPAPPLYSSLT
UniProt P07311: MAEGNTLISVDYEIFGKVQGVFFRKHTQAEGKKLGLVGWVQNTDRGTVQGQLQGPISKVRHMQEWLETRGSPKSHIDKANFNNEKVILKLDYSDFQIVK
UniProt P61163, whole entry, looked up: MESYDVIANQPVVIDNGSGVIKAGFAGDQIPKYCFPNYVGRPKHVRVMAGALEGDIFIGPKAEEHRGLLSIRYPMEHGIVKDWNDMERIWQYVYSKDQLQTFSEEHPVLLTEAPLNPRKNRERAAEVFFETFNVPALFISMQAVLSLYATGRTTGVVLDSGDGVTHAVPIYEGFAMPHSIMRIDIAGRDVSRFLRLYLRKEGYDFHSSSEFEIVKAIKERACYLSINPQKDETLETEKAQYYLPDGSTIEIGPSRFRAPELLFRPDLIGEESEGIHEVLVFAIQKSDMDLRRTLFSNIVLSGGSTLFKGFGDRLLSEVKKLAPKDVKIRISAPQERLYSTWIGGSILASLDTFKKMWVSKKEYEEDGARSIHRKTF
UniProt Q9NRK6: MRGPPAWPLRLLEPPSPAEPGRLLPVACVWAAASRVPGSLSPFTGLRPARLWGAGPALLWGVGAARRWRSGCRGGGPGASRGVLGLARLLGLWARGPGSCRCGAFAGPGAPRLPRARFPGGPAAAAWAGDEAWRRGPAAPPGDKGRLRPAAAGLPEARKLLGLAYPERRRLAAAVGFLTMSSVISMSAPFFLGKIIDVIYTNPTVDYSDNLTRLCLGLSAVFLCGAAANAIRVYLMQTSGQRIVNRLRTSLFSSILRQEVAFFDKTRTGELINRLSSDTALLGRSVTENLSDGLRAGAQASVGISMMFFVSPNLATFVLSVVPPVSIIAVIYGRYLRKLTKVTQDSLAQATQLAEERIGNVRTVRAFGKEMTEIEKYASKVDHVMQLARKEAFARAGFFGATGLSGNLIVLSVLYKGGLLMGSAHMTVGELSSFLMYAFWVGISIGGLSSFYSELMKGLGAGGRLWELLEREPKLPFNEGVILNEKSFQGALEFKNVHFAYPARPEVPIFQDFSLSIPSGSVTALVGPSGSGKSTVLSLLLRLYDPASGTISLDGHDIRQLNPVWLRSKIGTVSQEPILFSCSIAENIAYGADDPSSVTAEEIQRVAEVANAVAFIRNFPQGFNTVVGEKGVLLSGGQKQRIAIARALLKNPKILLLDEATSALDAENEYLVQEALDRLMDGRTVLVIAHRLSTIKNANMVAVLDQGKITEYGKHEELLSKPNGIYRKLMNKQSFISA
UniProt O00154: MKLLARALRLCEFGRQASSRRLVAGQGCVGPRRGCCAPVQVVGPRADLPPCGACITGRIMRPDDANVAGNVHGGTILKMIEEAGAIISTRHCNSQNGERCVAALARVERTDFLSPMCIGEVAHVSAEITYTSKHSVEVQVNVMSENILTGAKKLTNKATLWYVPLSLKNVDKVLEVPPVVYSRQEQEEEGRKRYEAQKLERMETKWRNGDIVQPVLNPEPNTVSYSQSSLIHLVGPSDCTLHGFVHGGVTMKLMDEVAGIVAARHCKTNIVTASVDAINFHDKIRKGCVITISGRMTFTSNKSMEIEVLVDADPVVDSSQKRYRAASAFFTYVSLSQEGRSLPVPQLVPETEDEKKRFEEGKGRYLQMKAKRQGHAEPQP
UniProt Q96EY9: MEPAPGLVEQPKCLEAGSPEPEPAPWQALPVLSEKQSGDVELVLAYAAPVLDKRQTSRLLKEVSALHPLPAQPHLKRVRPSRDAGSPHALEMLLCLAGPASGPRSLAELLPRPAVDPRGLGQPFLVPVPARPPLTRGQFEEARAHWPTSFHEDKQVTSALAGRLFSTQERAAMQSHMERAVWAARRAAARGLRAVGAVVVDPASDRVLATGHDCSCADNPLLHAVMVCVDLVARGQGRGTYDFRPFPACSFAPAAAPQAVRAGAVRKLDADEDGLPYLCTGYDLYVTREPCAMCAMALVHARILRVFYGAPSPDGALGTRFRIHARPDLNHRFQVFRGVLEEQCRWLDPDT
UniProt P33527: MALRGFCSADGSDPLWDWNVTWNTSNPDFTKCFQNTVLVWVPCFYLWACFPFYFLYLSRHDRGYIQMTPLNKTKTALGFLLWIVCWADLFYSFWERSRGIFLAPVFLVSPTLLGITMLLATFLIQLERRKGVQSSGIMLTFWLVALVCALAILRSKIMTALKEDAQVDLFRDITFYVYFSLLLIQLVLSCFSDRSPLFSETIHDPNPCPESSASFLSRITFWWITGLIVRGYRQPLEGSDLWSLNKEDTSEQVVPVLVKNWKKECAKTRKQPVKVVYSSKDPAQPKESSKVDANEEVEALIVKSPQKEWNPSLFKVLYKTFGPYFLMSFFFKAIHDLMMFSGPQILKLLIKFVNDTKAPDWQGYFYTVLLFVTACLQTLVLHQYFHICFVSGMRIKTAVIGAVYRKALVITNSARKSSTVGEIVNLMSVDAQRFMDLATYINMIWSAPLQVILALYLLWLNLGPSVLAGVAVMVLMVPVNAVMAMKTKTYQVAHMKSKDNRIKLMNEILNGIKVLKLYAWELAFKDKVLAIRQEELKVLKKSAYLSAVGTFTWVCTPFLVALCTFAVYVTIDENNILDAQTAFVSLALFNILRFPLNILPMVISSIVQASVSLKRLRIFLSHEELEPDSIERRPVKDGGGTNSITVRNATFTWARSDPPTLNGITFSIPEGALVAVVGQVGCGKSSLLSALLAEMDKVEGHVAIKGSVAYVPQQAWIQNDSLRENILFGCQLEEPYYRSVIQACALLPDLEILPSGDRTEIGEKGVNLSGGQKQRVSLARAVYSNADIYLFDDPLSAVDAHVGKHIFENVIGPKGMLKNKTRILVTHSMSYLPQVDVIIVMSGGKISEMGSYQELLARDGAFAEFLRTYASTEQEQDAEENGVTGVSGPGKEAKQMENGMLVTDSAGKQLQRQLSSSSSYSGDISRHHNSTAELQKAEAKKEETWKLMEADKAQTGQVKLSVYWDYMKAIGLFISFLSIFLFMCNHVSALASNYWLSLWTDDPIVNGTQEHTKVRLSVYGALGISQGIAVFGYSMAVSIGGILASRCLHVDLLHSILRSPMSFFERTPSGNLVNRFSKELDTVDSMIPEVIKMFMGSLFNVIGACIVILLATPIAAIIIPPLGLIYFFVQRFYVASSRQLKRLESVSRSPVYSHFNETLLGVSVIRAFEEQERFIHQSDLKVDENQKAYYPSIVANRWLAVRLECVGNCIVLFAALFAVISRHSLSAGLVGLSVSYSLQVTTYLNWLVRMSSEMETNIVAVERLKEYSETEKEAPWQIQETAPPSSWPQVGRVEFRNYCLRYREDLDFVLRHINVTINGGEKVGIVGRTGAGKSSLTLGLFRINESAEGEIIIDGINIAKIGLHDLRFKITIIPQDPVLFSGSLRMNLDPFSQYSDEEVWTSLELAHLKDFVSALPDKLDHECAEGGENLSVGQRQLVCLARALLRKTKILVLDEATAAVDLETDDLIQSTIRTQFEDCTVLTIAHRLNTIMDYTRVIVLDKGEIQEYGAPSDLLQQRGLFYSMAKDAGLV
UniProt Q9NPJ3: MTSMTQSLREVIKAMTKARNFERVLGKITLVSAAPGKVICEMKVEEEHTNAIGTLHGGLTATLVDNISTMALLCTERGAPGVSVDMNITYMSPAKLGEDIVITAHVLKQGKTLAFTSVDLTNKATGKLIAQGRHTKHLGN

[2] = compound: C[C@@H](Oc1cc(-c2cnn(C3CCNCC3)c2)cnc1N)c1c(Cl)ccc(F)c1Cl [crizotinib]
In short: as §1

[3] = compound: C[C@@H]1COCCN1C2=NC(=NC(=C2)C3(CC3)S(=O)(=O)C)C4=C5C=CNC5=CC=C4
In short: as §1

[4] = compound: C[C@H](C1=CC=C(C=C1)C(=O)NC2=C3C=CNC3=NC=C2)N
In short: as §1

[5] = compound: C[C@H](Nc1ncnc2nc[nH]c12)c1cc2cccc(Cl)c2c(=O)n1-c1ccccc1 [duvelisib]
In short: as §1

[6] = compound: Cc1cc(Nc2cc(CN3CCOCC3)c3nc(C)c(Cc4ccc(Cl)cc4F)n3n2)n[nH]1 [gandotinib]
In short: as §1

[7] = compound: Cc1cc(Nc2cc(N3CCN(C)CC3)nc(Sc3ccc(NC(=O)C4CC4)cc3)n2)n[nH]1 [tozasertib]
In short: as §1

[8] = compound: Cc1cc(SCc2sc(-c3ccc(C(F)(F)F)cc3)nc2C)ccc1OCC(=O)O
In short: as §1

[9] = compound: Cc1ccc(-n2nc(C(C)(C)C)cc2NC(=O)Nc2ccc(OCCN3CCOCC3)c3ccccc23)cc1 [doramapimod]
In short: as §1

[10] = compound: Cc1ccc(C(=O)N(CCCN)[C@@H](c2nc3cc(Cl)ccc3c(=O)n2Cc2ccccc2)C(C)C)cc1 [ispinesib]
In short: as §1

[11] = compound: Cc1ccc(NC(=O)c2ccc(CN3CC[C@H](N(C)C)C3)c(C(F)(F)F)c2)cc1Nc1nccc(-c2cncnc2)n1 [bafetinib]
In short: as §1

[12] = compound: Cc1cccc(CC(=O)N2CCc3c2ccc(-c2cn(C)c4ncnc(N)c24)c3F)n1
In short: as §1

[13] = compound: Cc1cn(-c2cc(NC(=O)c3ccc(C)c(Nc4nccc(-c5cccnc5)n4)c3)cc(C(F)(F)F)c2)cn1 [nilotinib]
In short: as §1

[14] = compound: Cc1nc(Nc2n[nH]c3c2CN(C(=O)N[C@H](CN(C)C)c2ccccc2)C3(C)C)c2sccc2n1
In short: as §1

[15] = compound: Cc1nc(Nc2ncc(C(=O)Nc3c(C)cccc3Cl)s2)cc(N2CCN(CCO)CC2)n1 [dasatinib]
In short: as §1

[16] = compound: Cc1ncc(-c2ccnc(Nc3ccc(S(C)(=O)=O)cc3)n2)n1C(C)C
In short: as §1

[17] = compound: Cn1cc(-c2ccc3c(c2)CCN3C(=O)Cc2cccc(C(F)(F)F)c2)c2c(N)ncnc21
In short: as §1

[18] = compound: Cn1cc(-c2ccc3nnc(C(F)(F)c4ccc5ncccc5c4)n3n2)cn1
In short: as §1

[19] = compound: Cn1cncc1[C@@](N)(c1ccc(Cl)cc1)c1ccc2c(c1)c(-c1cccc(Cl)c1)cc(=O)n2C [tipifarnib]
In short: as §1

[20] = compound: FC(F)(F)c1ccc(/C=C/c2nc(COc3ccc(CCCCn4ccnn4)cc3)co2)cc1 [mubritinib]
In short: as §1

Measured: log2 fold change

ACAT2 (UniProt Q9BWD1)
inactive: [1] -0.018 | [2] -0.017 | [3] 0.011 | [4] -0.014 | [5] 0.043 | [6] -0.032 | [7] -0.085 | [8] -0.042 | [9] -0.016 | [10] -0.016 | [11] -0.019 | [12] -0.037 | [13] 0.036 | [14] 0.006 | [15] 0.048 | [16] -0.014 | [17] 0.028 | [18] -0.001 | [19] -0.079 | [20] 0.03

ACAP2 (UniProt Q15057)
inactive: [1] 0.032 | [2] 0.033 | [3] 0.069 | [4] 0.023 | [6] -0.07 | [8] 0.047 | [9] -0.059 | [10] 0.002 | [11] 0.093 | [12] 0.052 | [13] -0.006 | [14] -0.05 | [15] -0.04 | [16] 0.051 | [17] -0.073 | [18] -0.051 | [19] -0.097 | [20] 0.016

ACTG1 (UniProt K7EM38)
inactive: [1] 0.019 | [2] 0.136 | [3] 0.004 | [4] 0.014 | [5] 0.133 | [6] -0.682 | [7] -0.062 | [8] 0.063 | [9] 0.116 | [10] 0.127 | [12] -0.041 | [15] -0.169 | [17] -0.391 | [18] -0.443 | [19] -0.648

ABHD10 (UniProt Q9NUJ1)
inactive: [1] -0.016 | [2] 0.087 | [3] 0.083 | [4] -0.068 | [5] 0.025 | [6] 0.016 | [7] -0.001 | [8] -0.041 | [9] -0.144 | [10] -0.004 | [11] 0.015 | [12] 0.027 | [13] -0.005 | [14] 0.007 | [15] 0.106 | [16] 0.015 | [17] -0.008 | [18] -0.019 | [19] 0.011 | [20] 0.021

ACBD5 (UniProt Q5T8D3)
inactive: [1] 0.033 | [2] 0.102 | [3] 0.059 | [4] 0.203 | [5] -0.048 | [6] -0.295 | [7] -0.096 | [8] 0.095 | [9] 0.053 | [10] -0.146 | [12] -0.112 | [15] -0.151 | [17] -0.001 | [18] -0.123 | [19] -0.074 | [20] -0.265

ACP1 isoform 2 (UniProt P24666)
inactive: [1] 0.008 | [2] -0.079 | [3] 0.016 | [4] 0.15 | [6] -0.137 | [8] 0.12 | [9] 0.033 | [10] -0.041 | [11] 0.037 | [12] 0.036 | [13] 0.039 | [14] -0.063 | [15] -0.126 | [16] -0.049 | [17] -0.044 | [18] 0.022 | [19] -0.146 | [20] 0.042

AAAS (UniProt Q9NRG9)
inactive: [1] -0.018 | [2] 0.018 | [3] -0.013 | [4] -0.089 | [5] 0.012 | [6] -0.028 | [7] 0.008 | [8] 0.004 | [9] -0.021 | [10] 0.056 | [11] -0.043 | [12] 0.023 | [13] 0.04 | [14] -0.011 | [15] -0.029 | [16] -0.027 | [17] 0.046 | [18] -0.018 | [19] -0.003 | [20] 0.017

ADCK1 (UniProt Q86TW2)
inactive: [1] -0.026 | [2] -0.118 | [3] -0.2 | [4] -0.041 | [5] -0.099 | [7] -0.22 | [8] -0.061 | [9] 0.282 | [10] -0.047 | [13] -0.029 | [14] 0.039 | [15] -0.041 | [16] -0.063 | [17] -0.04 | [18] 0.071 | [19] 0.048 | [20] 0.195

ADAM9 (UniProt Q13443)
inactive: [1] 0.014 | [2] 0.038 | [3] -0.026 | [4] 0.018 | [5] -0.005 | [6] 0.042 | [7] 0.014 | [8] -0.076 | [9] -0.019 | [10] 0.059 | [11] -0.086 | [12] -0.127 | [13] -0.03 | [14] -0.054 | [15] 0.011 | [16] 0.017 | [17] 0.112 | [18] 0.053 | [19] 0.028 | [20] 0.004

ACYP1 (UniProt P07311)
inactive: [1] 0.115 | [2] 0.006 | [3] 0.055 | [4] -0.068 | [5] 0.023 | [6] 0.006 | [7] 0.041 | [8] -0.011 | [9] -0.007 | [10] 0.153 | [11] 0.017 | [12] -0.032 | [13] 0.128 | [14] 0.013 | [15] -0.012 | [16] -0.021 | [17] 0.087 | [18] 0.076 | [19] -0.031 | [20] -0.033

ACTR1A (UniProt P61163)
inactive: [1] 0.011 | [2] 0.097 | [3] 0.019 | [4] 0.026 | [5] 0.028 | [6] -0.035 | [7] 0.023 | [8] 0.007 | [9] -0.03 | [10] 0.06 | [11] -0.029 | [12] -0.05 | [13] -0.018 | [14] -0.004 | [15] -0.027 | [16] 0.005 | [17] 0.003 | [18] 0.026 | [19] 0.044 | [20] 0.013

ABCB10 (UniProt Q9NRK6)
inactive: [1] 0.02 | [2] 0.043 | [3] 0.026 | [4] -0.03 | [5] 0.012 | [6] -0.052 | [7] -0.017 | [8] -0.035 | [9] -0.041 | [10] -0.017 | [11] -0.066 | [12] 0.008 | [13] -0.019 | [14] 0 | [15] 0.01 | [16] -0.004 | [17] 0.01 | [18] 0.025 | [19] 0.036 | [20] 0.025

ACOT7 isoform 7 (UniProt O00154)
inactive: [1] 0.009 | [2] 0.064 | [3] 0.01 | [4] -0.087 | [5] 0.037 | [6] -0.024 | [7] -0.02 | [8] -0.021 | [9] -0.006 | [10] 0.045 | [11] 0.013 | [12] 0.014 | [13] 0.031 | [14] 0.005 | [15] 0.032 | [16] -0.01 | [17] 0.018 | [18] 0.033 | [19] -0.023 | [20] 0.029

ADAT3 (UniProt Q96EY9)
inactive: [1] 0.068 | [2] 0.05 | [3] 0.039 | [4] 0.04 | [5] 0.03 | [6] -0.234 | [7] -0.023 | [8] 0.071 | [9] 0.018 | [10] 0.045 | [11] -0.112 | [12] -0.041 | [13] -0.011 | [14] 0 | [15] -0.05 | [16] -0.02 | [17] 0.015 | [18] 0.037 | [19] -0.004 | [20] -0.075

ABCC1 (UniProt P33527)
inactive: [1] 0.026 | [2] 0.082 | [3] 0.022 | [4] -0.104 | [5] 0.039 | [6] -0.076 | [7] -0.063 | [8] -0.012 | [9] -0.025 | [10] 0.125 | [11] 0.028 | [12] 0.049 | [13] 0.033 | [14] 0.009 | [15] 0.008 | [16] -0.012 | [17] 0.032 | [18] 0.002 | [19] 0.005 | [20] 0.012

ABCF2 isoform 2 (UniProt Q9UG63)
inactive: [1] 0.041 | [2] -0.117 | [3] 0.006 | [4] 0.008 | [5] 0.02 | [6] -0.035 | [7] -0.045 | [8] 0.027 | [9] 0.008 | [10] -0.031 | [11] 0.016 | [12] -0.01 | [13] 0.048 | [14] 0.073 | [15] -0.038 | [16] 0.017 | [17] 0.016 | [18] 0.02 | [19] -0.049 | [20] 0.023

ACOT13 (UniProt Q9NPJ3)
inactive: [1] -0.014 | [2] 0.102 | [3] -0.081 | [4] -0.081 | [5] -0.011 | [6] 0.074 | [7] 0.009 | [8] -0.011 | [9] -0.071 | [10] 0.084 | [11] -0.041 | [12] 0.112 | [13] 0.046 | [14] -0.037 | [15] 0.032 | [16] 0.039 | [17] -0.022 | [18] -0.01 | [19] -0.002 | [20] 0.007
